Results reported in PubChem BioAssay AID2685 (National Center for Advancing Translational Sciences (NCATS), 2010).
The list shows a part of the results. Further columns of the screen follow, without active or inactive calls. Most of these compounds were active or inconclusive in the main read-out, so they are no random draw. Words in brackets tell the shape of the fitted curve; partial curves, single points and poor fits give uncertain potencies.

Assay: qHTS Assay for Lipid Storage Modulators in Drosophila S3 Cells;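 on cell number change: cells counted by Cell Tracker Red CMTPX staining in the red channel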
Conditions: BODIPY lipid droplet fluorescence, 18-24 h; for cell number change: measured here: cell count max response, cells fed with added oleic acid
Summary of the method: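 Drosophila S3 cells got compounds at several concentrations plus oleic acid (400 uM solution). Laser-scanning cytometry with 488 nm excitation read lipid droplets at 500-530 nm and cells at 575-640 nm. Percent activity was relative to 20 uM Triacsin C.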

[1] = measured here: cell number channel AC50, cells fed with added oleic acid
[2] = measured here: lipid fluorescence (Fed channel) AC50, cells fed with added oleic acid

| Compound | cell number change | AC50 [1] | AC50 [2] |
| --- | --- | --- | --- |
| COc1ccccc1OCC(=O)NCC(C)NC(=O)COc1ccccc1OC (centres undefined) | 22.8% | 1.03 µM [rising, full curve, poor fit] |  |
| S=C(NCC1CCCCC1)Nc1ccc(Oc2ccccc2)cc1 | 8.19% |  | 29.1 µM [falling, single point] |
| Cc1ncc(CO)c2c1Oc1nc(-c3ccccc3)nc(SCC(=O)Nc3cccc(O)c3)c1C2 | 88.7% |  | 6.51 µM [falling, full curve] |
| CCOc1c(Cl)cc(CNCC(C)C)cc1OC | -108% | 5.8 µM [falling, full curve] | 23.1 µM [falling, single point] |
| CCOc1ccc(N/C(=C(/C(Cl)=C(Cl)Cl)[N+](=O)[O-])n2cncn2)cc1 | 127% | 29.1 µM [rising, single point] |  |
| CCN(CC)S(=O)(=O)c1ccc(S(=O)(=O)Nc2ccc3c(c2)oc2ccccc23)cc1 | 8.2% |  | 20.6 µM [rising, single point] |
| N#Cc1ccccc1NC(=O)CSc1nnc(-c2ccccc2)n1-c1ccccc1 | 51.4% | 0.0651 µM [rising, full curve, poor fit] | 29.1 µM [rising, partial curve, poor fit] |
| Cc1ccc(/C=N/NC(=O)c2cccs2)s1 | -14.2% |  | 2.91 µM [rising, partial curve] |
| Cc1cc(F)ccc1S(=O)(=O)N1CCCOC1CNC(=O)C(=O)NCc1ccncc1 (centres undefined) | 3.47% |  |  |
| c1ccc(CNC23CC4CC(CC(C4)C2)C3)nc1 | -32.6% |  |  |
| O=[N+]([O-])c1ccc2[nH]cc(S(=O)(=O)N3CCN(c4cccc(Cl)c4)CC3)c2c1 | 26% |  | 32.6 µM [falling, single point] |
| Cc1nn(C)c(Oc2ccccc2)c1CCNS(=O)(=O)c1ccccc1 | 39.1% | 16.4 µM [rising, single point] |  |
| C(=N\N1CCN(Cc2cccc3ccccc23)CC1)/c1ccco1 | -0.7% |  |  |
| C/C(=N\NC(=O)c1cc(C2CC2)nc2ccccc12)c1ccc(O)cc1O | 8.33% |  |  |
| COc1ccc(Cl)cc1NC(=O)C1CC(c2c(F)cccc2Cl)=NO1 (centres undefined) | -3.16% |  | 29.1 µM [falling, single point] |
| O=C(CSC1=NS(=O)(=O)c2cc(F)ccc2N1)Nc1ccc(F)cc1 | -14.5% |  |  |
| CCN(CC)CCN1C(=O)C(=O)/C(=C(/O)c2c(C)[nH]c(C(=O)OC)c2C)C1c1ccc(OC)cc1 (centres undefined) | 4.1% |  |  |
| CC(NS(=O)(=O)OCC(Cl)(Cl)Cl)c1ccc(C(C)(C)C)cc1 (centres undefined) | -40.8% | 16.4 µM [falling, single point] |  |
| Cc1cccc(NC(=O)c2ccc(OCC3CCCO3)cc2)c1C (centres undefined) | -15.2% |  | 29.1 µM [falling, single point] |
| Cc1[nH][nH]c(=O)c1C(c1ccc(-c2ccc(Cl)cc2)o1)c1c(C)[nH][nH]c1=O | 9.88% |  | 11.6 µM [rising, partial curve] |

An excerpt of these results, as tab-separated lines:
Compound	cell number change	AC50 [1]	AC50 [2]
CCN(CC)CCN1C(=O)C(=O)/C(=C(/O)c2c(C)[nH]c(C(=O)OC)c2C)C1c1ccc(OC)cc1 (centres undefined)	4.1%		
CC(NS(=O)(=O)OCC(Cl)(Cl)Cl)c1ccc(C(C)(C)C)cc1 (centres undefined)	-40.8%	16.4 µM [falling, single point]	

Remaining list, next part.

| Compound | cell number change | AC50 [1] | AC50 [2] |
| --- | --- | --- | --- |
| CN(c1ccccc1)S(=O)(=O)c1ccc(C(=O)NCCc2ccccc2)cc1 | 13.9% |  | 29.1 µM [falling, single point] |
| CNC(=O)/C=C1\NC(C)(C)Cc2c1ccc1ccccc21 | -8.62% |  | 23.1 µM [rising, single point] |
| CCCN(CC(=O)Nc1ccccc1C)C(=O)c1ccc(S(=O)(=O)N2CCCCCC2)cc1 | 8.21% | 7.31 µM [rising, partial curve, poor fit] |  |
| CN(Cc1c(C(=O)N/N=C/c2cccc(Cl)c2)nnn1-c1nonc1N)c1ccccc1 | -3.05% |  | 29.1 µM [rising, single point] |
| CCCN(CCC)CC(O)Cn1cc(/C=C/C(=O)c2cccs2)c2ccccc21 (centres undefined) | -17.7% |  | 20.6 µM [falling, single point] |
| CC(/C=N/Nc1ccc2nncn2n1)=C\c1ccccc1 | 12% | 0.146 µM [rising, full curve, poor fit] | 0.116 µM [rising, full curve, poor fit] |
| CCc1nc(NCCc2ccccn2)c2nnn(Cc3ccccc3F)c2n1 | -29.6% |  | 29.1 µM [falling, single point] |
| C/C(=N\N1CCN(C)CC1)c1ccc(OC(F)F)cc1 | -38.1% | 1.3 µM [falling, full curve, poor fit] | 1.03 µM [falling, full curve] |
| COC(=O)c1ccccc1NCc1cc(=O)oc2cc(O)c(O)cc12 | 118% | 29.1 µM [rising, single point] | 8.2 µM [rising, partial curve] |
| O=C(N/N=C/c1cccc2ccccc12)c1n[nH]c2c1CCCC2 | 143% | 14.6 µM [rising, partial curve] | 4.11 µM [rising, single point] |
| Cc1cc2ccccn2c1C(=O)c1ccc(NN)c([N+](=O)[O-])c1 | -11.2% | 0.82 µM [rising, full curve, poor fit] | 1.3 µM [rising, full curve] |
| CC(=O)Nc1ccc(S(=O)(=O)Nc2cc(C)c(-n3nc4ccccc4n3)cc2O)cc1 | -19.8% |  |  |
| NC1=NN(c2cccc(C(=O)O)c2)C(=O)C1 | -33.5% | 0.00651 µM [falling, full curve, poor fit] |  |
| CSCC[C@H](NC(=O)Nc1ccccc1C)C(=O)O | 26.2% |  | 20.6 µM [rising, single point] |
| c1ccc(-c2nnc3n2N=C(c2ccc4c(c2)OCO4)CS3)nc1 | -89.2% | 23.1 µM [falling, single point] | 29.1 µM [falling, single point] |
| Cc1c(Cl)ccc(S(=O)(=O)NCCCn2ccnc2)c1Cl | -16.3% |  |  |
| CCOC(=O)C1=NN(c2ccc(Cl)cc2)C(=O)C1 | 12.6% |  |  |
| COc1cccc(C(C(=O)NC2CCCC2)N(C(=O)c2ccco2)c2ccc(C(C)=O)cc2)c1OC (centres undefined) | -15.8% |  |  |
| COc1cc2c(cc1NC(=O)c1cccc(F)c1)CCCC2 | -52.2% | 29.1 µM [falling, single point] | 25.9 µM [rising, partial curve, poor fit] |
| COc1cc(NS(=O)(=O)c2ccc(NC(=O)c3ccc(S(=O)(=O)N4CCCCC4)cc3)cc2)ncn1 | 22% |  | 4.11 µM [rising, single point] |

Just AC50 [2] and cell number change, for some of the entries so far:
Compound	AC50 [2]	cell number change
CCCN(CCC)CC(O)Cn1cc(/C=C/C(=O)c2cccs2)c2ccccc21 (centres undefined)	20.6 µM [falling, single point]	-17.7%
CC(/C=N/Nc1ccc2nncn2n1)=C\c1ccccc1	0.116 µM [rising, full curve, poor fit]	12%

Continuation:

| Compound | cell number change | AC50 [1] | AC50 [2] |
| --- | --- | --- | --- |
| CCCC(=O)N1CCN(c2ccc(NC(=O)C(C)(C)C)cc2Cl)CC1 | -71.9% | 23.1 µM [falling, partial curve, poor fit] | 1.64 µM [falling, partial curve] |
| Oc1ccc(N2CCN(c3ccnc4cc(Cl)ccc34)CC2)cc1 | 17.7% |  | 6.51 µM [rising, single point] |
| CN(C)CCCNc1ncnc2oc(-c3ccccc3)c(-c3ccccc3)c12 | 2.95% |  | 2.59 µM [falling, full curve] |
| COc1cccc(C(=O)Nc2ccc(C(F)(F)F)n(C)c2=O)c1 |  |  | 6.51 µM [rising, single point] |
| CCCN1C2CCCC1CC(NC(=O)c1ccc(Br)cc1)C2 (centres undefined) | -0.549% |  | 5.17 µM [falling, partial curve] |
| Brc1csc(/C=N/Nc2nc3ccccc3s2)c1 | -59.9% | 14.6 µM [falling, partial curve] | 14.6 µM [falling, single point] |
| COc1ccc(NC(=O)c2cnc(SC)n2-c2ccc(F)cc2)c(OC)c1 | -6.67% |  | 0.13 µM [rising, single point] |
| CCCCn1c(SCC(=O)Nc2nnc(CC)s2)nc2c1c(=O)n(C)c(=O)n2C | 20.7% |  | 4.61 µM [rising, full curve, poor fit] |
| Cc1ccc(S(=O)(=O)c2nc(-c3ccccc3)oc2N2CCC(C(N)=O)CC2)cc1 | 37.9% | 1.3 µM [rising, full curve, poor fit] |  |
| O=C(CCN1CCc2ccccc2CC1)c1ccc2c(c1)OCCO2 | -30.6% | 9.2 µM [falling, partial curve, poor fit] | 18.4 µM [falling, single point] |
| COc1ccc(-c2cnc(N)nc2-c2ccc(OC)cc2O)cc1 | -9.28% | 0.58 µM [rising, full curve] |  |
| CC(C)OCCCN1C(=O)c2[nH]nc(-c3ccccc3O)c2C1c1cccc(Cl)c1 (centres undefined) | -80.3% | 29.1 µM [falling, single point] | 29.1 µM [falling, partial curve] |
| O=C(O)c1cccc(NC(=O)c2cn(-c3ccccc3)nc2-c2cccc(Br)c2)c1 | 21.8% |  |  |
| COc1cccc(CNC(=O)C(=O)NCC2OCCCN2S(=O)(=O)c2cc(C)ccc2C)c1 (centres undefined) | 8.09% |  | 2.91 µM [rising, full curve] |
| Cc1ccccc1NC(=O)Cc1nnc(SCC(=O)NC2=NCCS2)n1C | -5.56% |  | 29.1 µM [falling, single point] |
| Nc1nc(N2CCOCC2)n[nH]1 | 24.8% |  |  |
| Cc1nnc2ccc(Oc3ccc(-c4ccccc4)cc3)nn12 | -44.6% | 16.4 µM [falling, single point] | 29.1 µM [falling, single point] |
| CC(C)c1nnc(NC(=O)CSc2nc3ccccc3s2)s1 | -75.7% | 29.1 µM [falling, single point] | 29.1 µM [falling, single point] |
| COc1cc(C2c3c(oc4ccccc4c3=O)C(=O)N2c2nccs2)ccc1O (centres undefined) | 0.27% |  |  |
